From patent US20170137417A1 (priority 2014, published 2017)
Some entries share one result that the patent states for a list of compounds.

How the values were obtained:
Phytophthora infestans = format: in vivo; details: dose of 1 ppm; tomatoes, preventive spray; evaluated 3 days after inoculation; 0% = untreated control, 100% = no disease
Plasmopara viticola = assay: Plasmopara test (grapevines) / preventive; format: in vivo; details: dose of 1 ppm, preventive spray, evaluated 6 days after inoculation, 0% = untreated control, 100% = no disease

## C#CCOc1ccc(F)c(F)c1C1CC(c2csc(C3CCN(C(=O)Nc4cc(C)ccc4C)CC3)n2)=NO1 (centres unmarked) [Example I-3]
Phytophthora infestans
  biological efficacy: ≥ 70%
Plasmopara viticola
  biological efficacy: ≥ 70%
